{
  "sequences": {"note": "The chains behind the UniProt entries cited, without tags or fusion partners.", "UniProt Q9GZU1, whole entry, looked up": "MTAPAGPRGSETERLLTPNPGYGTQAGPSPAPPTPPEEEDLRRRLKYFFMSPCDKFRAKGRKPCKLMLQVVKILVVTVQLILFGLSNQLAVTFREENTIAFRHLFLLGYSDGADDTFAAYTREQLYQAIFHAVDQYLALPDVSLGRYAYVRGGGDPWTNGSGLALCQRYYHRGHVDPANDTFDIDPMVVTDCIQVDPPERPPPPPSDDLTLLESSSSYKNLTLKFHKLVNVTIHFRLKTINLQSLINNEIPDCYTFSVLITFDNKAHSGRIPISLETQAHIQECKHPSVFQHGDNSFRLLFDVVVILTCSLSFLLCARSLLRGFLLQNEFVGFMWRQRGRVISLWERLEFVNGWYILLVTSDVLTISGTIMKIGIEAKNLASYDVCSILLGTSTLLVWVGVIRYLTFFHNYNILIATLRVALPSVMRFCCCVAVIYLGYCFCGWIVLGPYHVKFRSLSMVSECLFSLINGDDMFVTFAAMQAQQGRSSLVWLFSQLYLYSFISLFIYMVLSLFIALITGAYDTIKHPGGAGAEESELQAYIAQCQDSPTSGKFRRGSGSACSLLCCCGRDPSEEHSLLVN"},
  "source": "PubChem BioAssay AID624415",
  "about": "(National Center for Advancing Translational Sciences (NCATS), 2012)",
  "note": "Several values for one entry are separate records, joined by “and”; a condition that tells them apart may be missing. Equal values may be shown once. In all, about 390,000 compounds went through this assay and about 60 (0.02%) were called active. Inconclusive results, whose numbers are uncertain, are shown with a selection of clear calls. No stated cut-off is given here; in the data, active means activity change below about -50%; inconclusive means between about -30% and that limit; inactive means weaker than that. On the % scale 0 is the no-effect control and ±100 the full control effect.",
  "data": [
    {"molecular_target": "Mucolipin-1 (Homo sapiens) (UniProt Q9GZU1)", "assay": "qHTS for Inhibitors of the Human Mucolipin Transient Receptor Potential 1 (TRPML1);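 further: stimulus is agonist 54-4 at its EC80 concentration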", "details": "TRPML1-inducible cells, Ca2+ dye fluorescence, FDSS; hits give low values; inhibition of EC80 agonist-evoked calcium signal", "how_it_was_run": "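Tet-induced TRPML1-DL cells loaded with Ca8 no-wash calcium dye were read kinetically on FDSS. Compound addition was followed by EC80 agonist 54-4 (4 uM final); inhibition was read over 110 s.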", "values": [
      {"smiles": "O=C(Nc1ccccc1)c1ccccc1Br", "activity change, negative = inhibition": "inconclusive: -31.5%"},
      {"smiles": "On1onc2c3cc(-c4ccccc4)nc3ccc21", "activity change, negative = inhibition": "inactive: 58.9%"},
      {"smiles": "Cc1cccc(NC(=O)c2sc3nc(-c4cc5ccc(O)cc5oc4=O)[nH]c(=O)c3c2C)c1", "activity change, negative = inhibition": "inconclusive: -41.8%"},
      {"smiles": "COCCNc1ccc2cc(S(=O)(=O)N3CCCCC3)ccc2n1", "activity change, negative = inhibition": "inconclusive: -33.6%"},
      {"smiles": "CCC(=O)N1c2ccc(S(=O)(=O)N3CCN(C)CC3)cc2CC1C", "note": "(stereo unspecified)", "activity change, negative = inhibition": "inconclusive: -42.2%"},
      {"smiles": "CC(C)CC(c1nnnn1CC1CCCO1)N1CCN(C2CCCC2)CC1", "note": "(stereo unspecified)", "activity change, negative = inhibition": "inconclusive: -39.6%"},
      {"smiles": "CCN(CC)C(=O)COc1cccc2ccccc12", "activity change, negative = inhibition": "inconclusive: -49.7%"},
      {"smiles": "COC(=O)c1cn[nH]c1N", "activity change, negative = inhibition": "inconclusive: -38.5%"},
      {"smiles": "CN(C(=O)c1ccc(NC(=O)Cc2ccc(NC(=O)C3CCN(C(=O)C4CC4)CC3)cc2)cc1)C1CC1", "activity change, negative = inhibition": "inconclusive: -31.1%"},
      {"smiles": "Cc1ccc(S(=O)(=O)NCc2ccc(C(=O)NCCc3cccc(C)c3)cc2)cc1", "activity change, negative = inhibition": "inconclusive: -30.5%"},
      {"smiles": "N=c1c2c(-c3ccccc3)c(-c3ccccc3)oc2ncn1CCCN1CCOCC1", "activity change, negative = inhibition": "inactive: 16.9%"},
      {"smiles": "CCCSc1nnc(Cn2c(=O)sc3ccccc32)n1C", "activity change, negative = inhibition": "inconclusive: -35.2%"},
      {"smiles": "COC(=O)c1c(NC(=O)C2COc3ccccc3O2)sc2c1CCN(Cc1ccccc1)C2", "note": "(stereo unspecified)", "activity change, negative = inhibition": "inactive: 5.67%"},
      {"smiles": "Cc1cc(C)c(NC(=O)C(=O)NCC(c2cccnc2)N2CCN(Cc3ccccc3)CC2)c(C)c1", "note": "(stereo unspecified)", "activity change, negative = inhibition": "inactive: -15.5%"},
      {"smiles": "CCN(C(=O)c1c(C)oc2ncn(CC(C)C)c(=O)c12)c1cccc(Cl)c1", "activity change, negative = inhibition": "inconclusive: -36%"},
      {"smiles": "CCOC(=O)N1CCc2c(sc(NCc3cccs3)c2C(=O)Nc2ccc(OC)cc2OC)C1", "activity change, negative = inhibition": "inconclusive: -33.1%"},
      {"smiles": "O=C(CCN1CCN(Cc2ccccc2)CC1)Nc1ccc(OCc2ccccc2)cc1", "activity change, negative = inhibition": "inconclusive: -34.7%"},
      {"smiles": "Cc1nc2cc(C)c(C)cc2o1", "activity change, negative = inhibition": "inconclusive: -35.9%"},
      {"smiles": "CN1CCN(c2nc(-c3ccncc3)nc3ccccc23)CC1", "activity change, negative = inhibition": "inactive: -2.02%"},
      {"smiles": "Cc1cccc(C)c1NC(=O)Cn1nnnc1N", "activity change, negative = inhibition": "inactive: 8.37%"},
      {"smiles": "CCn1cc2nc(SCc3cccc(C(F)(F)F)c3)n(Cc3ccc(OC)cc3)c(=O)c2n1", "activity change, negative = inhibition": "inactive: 31.2%"},
      {"smiles": "Cc1ccc2oc(-c3cc(NC(=O)c4oc5ccccc5c4C)ccc3Cl)nc2c1", "activity change, negative = inhibition": "inconclusive: -32.8%"},
      {"smiles": "O=C1c2ccccc2S(=O)(=O)N1CCS(=O)(=O)c1ccc(F)cc1", "activity change, negative = inhibition": "inactive: -7.36%"},
      {"smiles": "CCOC(=O)c1nnn(C(CC)C(=O)Nc2ccc(F)cc2)c1C(=O)OCC", "note": "(stereo unspecified)", "activity change, negative = inhibition": "inactive: 1.64%"},
      {"smiles": "CN(C)Cc1c(C(=O)N/N=C/C=C/c2ccccc2)nnn1-c1nonc1N", "activity change, negative = inhibition": "inactive: 5.83%"},
      {"smiles": "CC1CCN(c2ccc(NC(=O)Cc3ccccc3)cc2)CC1", "activity change, negative = inhibition": "active: -50.9%"},
      {"smiles": "Cc1ccc(Cn2cnc3c(cnn3-c3ccc(F)cc3)c2=O)cc1", "activity change, negative = inhibition": "inconclusive: -39%"},
      {"smiles": "Cc1[nH]n(-c2cccc3ccccc23)c(=O)c1/C=N/NC(=O)c1cccc([N+](=O)[O-])c1", "activity change, negative = inhibition": "inactive: -6.48%"},
      {"smiles": "Oc1cc2ccccc2cc1-c1n[nH]c(=S)n1Cc1ccco1", "activity change, negative = inhibition": "inconclusive: -33.9%"},
      {"smiles": "COc1ccccc1NC(=O)Nc1nc(C(N)Cc2ccc(Cl)cc2)cs1", "note": "(stereo unspecified)", "activity change, negative = inhibition": "inconclusive: -35.5%"},
      {"smiles": "CCN(CC(=O)NCc1ccc(F)cc1)C(=O)c1oc2ccccc2c1C", "activity change, negative = inhibition": "inconclusive: -32.8%"},
      {"smiles": "O=c1cc(CN2CCN(Cc3ccc(F)cc3)C(CCO)C2)[nH]c2ccccc12", "note": "(stereo unspecified)", "activity change, negative = inhibition": "inactive: 13.6%"},
      {"smiles": "CCCSc1ccc([C@@H]2[C@@H]3C(=O)N(CC)C(=O)[C@@H]3[C@]3(C(=O)OC)CCCCN23)cc1OC", "activity change, negative = inhibition": "inactive: 29.7%"},
      {"smiles": "Cc1ccccc1C1CC(c2cccs2)Nc2nnnn21", "note": "(stereo unspecified)", "activity change, negative = inhibition": "inconclusive: -30.7%"},
      {"smiles": "Cc1ccc(-n2c(SCC(=O)Nc3cccc(S(N)(=O)=O)c3)nc3ccccc32)cc1", "activity change, negative = inhibition": "inconclusive: -34.7%"},
      {"smiles": "CCOC(=O)c1c(-c2ccc(C)cc2)csc1NC(=O)c1cc(=O)c2cc(C)cc(C)c2o1", "activity change, negative = inhibition": "inconclusive: -36.6%"},
      {"smiles": "COc1cccc(C(=O)NNc2nc(C)cc(C)n2)c1", "activity change, negative = inhibition": "inconclusive: -30.5%"},
      {"smiles": "COc1cc(C=NCC2OCCc3ccccc32)cc(OC)c1", "note": "(stereo unspecified)", "activity change, negative = inhibition": "inconclusive: -35.9%"},
      {"smiles": "CCOc1ccc(CN2CCN(Cc3cnc(N4CCOCC4)s3)CC2CCO)cc1", "note": "(stereo unspecified)", "activity change, negative = inhibition": "inconclusive: -34.2%"},
      {"smiles": "COC(=O)CCCCCn1c(-c2ccccc2)cn2c3c(=O)n(C)c(=O)n(C)c3nc12", "activity change, negative = inhibition": "inconclusive: -30.4%"},
      {"smiles": "CCN(CC)CCCNC(=O)c1cn(CC(C)C)c(=O)c2c1c1ccccc1n2C", "activity change, negative = inhibition": "inactive: 17.9% and inactive: 8.7%"},
      {"smiles": "COC(=O)c1c(NC(=O)CSc2ncnc3ccccc23)sc(C)c1C", "activity change, negative = inhibition": "inconclusive: -32.3%"},
      {"smiles": "Cn1c(C(=O)NCCCN2CCCCCC2)cc2c(=O)n(C)c3ccccc3c21", "activity change, negative = inhibition": "inconclusive: -30%"},
      {"smiles": "O=C(c1ccc(Cl)cc1)N1CCN(CCOc2ccccc2)CC1", "activity change, negative = inhibition": "inconclusive: -30.5%"},
      {"smiles": "CC(C)(C)c1ccc(-c2csc(NNC3=NCCCCC3)n2)cc1", "activity change, negative = inhibition": "inactive: 0.748%"},
      {"smiles": "O=C(CN1C(=O)NC2(CCCCC2)C1=O)NCCCSc1ccccc1", "activity change, negative = inhibition": "inconclusive: -31.7%"},
      {"smiles": "O=C(O)c1sccc1NC(=O)c1c(Cl)cccc1Cl", "activity change, negative = inhibition": "inconclusive: -30.2%"},
      {"smiles": "CCOC(=O)c1c(S(=O)(=O)N2CCC(C(=O)Nc3ccc(OCC)cc3)CC2)c(C)n(C)c1C", "activity change, negative = inhibition": "inconclusive: -37.6%"},
      {"smiles": "CCCCCCCc1nn2c(=O)cc(O)nc2s1", "activity change, negative = inhibition": "inactive: 11.2%"},
      {"smiles": "CC(=O)c1cccc(NC(=O)c2nc3ccccc3nc2N2CCCCC2)c1", "activity change, negative = inhibition": "inconclusive: -36.3%"},
      {"smiles": "Cc1ccc(C2=NN(CC(=O)NCCc3ccc(Cl)cc3)C(=O)CC2)cc1", "activity change, negative = inhibition": "inactive: -22.4%"},
      {"smiles": "O=C(CSc1nccn1Cc1ccccc1)Nc1ccc2c(c1)OCO2", "activity change, negative = inhibition": "inactive: 4.78%"},
      {"smiles": "CCOc1cc(C(=O)NCCc2csc(-c3ccc(C)cc3)n2)cc(OCC)c1OCC", "activity change, negative = inhibition": "inconclusive: -30.2%"},
      {"smiles": "CCOC(=O)c1cnc2c(-c3ccccc3)cnn2c1N", "activity change, negative = inhibition": "inactive: -4.64%"},
      {"smiles": "CCn1c(=O)cc(OCC(=O)NCc2ccco2)c2ccccc21", "activity change, negative = inhibition": "inactive: 27.5%"},
      {"smiles": "CCN(C[C@H]1N[C@@](Cc2ccccc2)(C(=O)OC)[C@H]2C(=O)N(C)C(=O)[C@@H]12)S(=O)(=O)c1ccc(-c2ccccc2)cc1", "activity change, negative = inhibition": "inactive: 21.2%"}
    ]}
  ]
}
